Results are given in words; binding and its absence hold for the method and conditions named. Binding can be weak; no strength is given. Tags and fused reporters may be left off the sequences shown.
Biological target: GST-tagged HMG domain of TCF/Pangolin (Drosophila)
Experiment: pull-down; GST pulldown: 2 µg His-C-clamp with 2 µg GST or GST-HMG, 1 h at 4°C in 20 mM Tris-HCl pH 7.62, 150 mM NaCl, 1% Triton X-100; then Glutathione Sepharose beads for 2 h; anti-His Western blot. Also done after pretreatment with micrococcal nuclease (5 mM CaCl2) or OPA, with no effect on binding; both purified

binding: binds
Binder: DSGGNNMKKCRARFGLDQQSQWCKPCRRKKKCIRYMEALNGNGPAE (domain or fragment, UniProt P91943 363-408) [His-tagged C-clamp fragment of TCF/Pangolin (wild type)]

From article PMC3896468
